Results from PubChem BioAssay AID687031 (Broad Institute, 2013).
Among all 1,400 compounds or so, about 50 (4%) were called active.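 How the source made its calls: active means fitted curve reaches 30% CPE protection at or below the top valid dose, with every test run called active; inconclusive means test runs disagree, some active and some not; inactive means every test run inactive, including effects in the wrong direction.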 The list shows a part of the results. Results with a measured potency or affinity are listed apart.

Assay: antiviral rescue of DENV2-infected BHK-21 cells – cell-based, ATP luminescence, cherry-pick, dose response (AID 687031);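 further: 0% = infected DMSO wells and 100% = uninfected cell wells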
Settings: BHK-21 DENV2 CPE protection, 5 d; at 19.5 µM (top of the series) unless noted

CPE protection (higher = active), inactive:
CC(=O)N[C@@H]1CC[C@H](CCNC(=O)C2CCCC2)O[C@H]1CO -7.17%
CC(C)CN1CCCC(N2CCN(c3cccc(Cl)c3)CC2)C1 (configuration not stated) 13.2%
COc1ccccc1N(CC(=O)N1CCCC1)S(=O)(=O)c1ccc(C)cc1 -2.22%
COc1cccc(OC)c1C(=O)N1CCN(Cc2c[nH]c3ccccc23)CC1 0.286%
Cc1cccc(OCCn2c(=O)n(C)c3ccccc32)c1 -10.2%
CCN(C[C@H]1N[C@@](C)(C(=O)OC)[C@H]2C(=O)N(C)C(=O)[C@@H]12)S(=O)(=O)c1ccc(-c2ccccc2)cc1 11.6%
COc1ccc(NC(=O)C2CCC(CNS(=O)(=O)c3cccs3)CC2)cc1OC (configuration not stated) 1.38%
COC(=O)Cc1ccc(OC2(C)CCN(Cc3csc4ccccc34)C2)cc1 (configuration not stated) -2.94%
N#C[C@@H]1[C@H](c2ccc(-c3ccccc3F)cc2)[C@H](CO)N1C(=O)C1CC1 -0.808% [at 21 µM]
COc1cc2c(cc1OC)CN(C(=O)CCOc1ccccc1C)CC2 -5.53% [at 10 µM]
COc1ccc(CNC(=O)C[C@H]2C(=O)N(Cc3ccccc3)C[C@@H]2Cc2ccccc2)cc1 -13.9%
CC(C)NC(=O)Nc1ccc2c(c1)C(=O)N([C@H](C)CO)C[C@H](C)[C@H](CN(C)CC1CC1)OCCCC[C@@H](C)O2 4.87%
COc1ccc2c3c([nH]c2c1)[C@H](CO)N(C(=O)Nc1cccc(F)c1)CC31CN(S(=O)(=O)c2ccccc2)C1 -14%
Nc1ccc(-c2cc3ccccc3c(=O)o2)cc1 -10%
CC(C)(C)OC(=O)CNC(=O)c1[nH]cnc1C(=O)N[C@@H](Cc1ccccc1)C(=O)OC(C)(C)C -7.2%
COc1cccc(N2CC(C(=O)Nc3ccc(F)cc3)CC2=O)c1 (configuration not stated) 0.93%
Cc1cccc(C(=O)N2CCC(=O)N([C@H](COCc3ccc(Cl)cc3)Cc3ccccc3)CC2)c1 -2.82%
CCN1C(=NCCc2c[nH]c3ccccc23)N[C@@H](c2ccccc2)[C@H](C(=O)OC)[C@H]1C -6.67%
CC1(c2ccc3ccccc3c2)CCC(=O)O1 (configuration not stated) 13.5%
Cn1c(=O)c2nc(Cl)c(-c3ccccc3)nc2n(C)c1=O 20.6%
Cc1noc(C)c1NC(=O)N(C)C[C@H]1OCCCC[C@H](C)Oc2ccc(NC(=O)NC(C)C)cc2C(=O)N([C@H](C)CO)C[C@@H]1C 28.6%
Cc1ccc(S(=O)(=O)Nc2ccc3c(c2)C(=O)N([C@@H](C)CO)C[C@@H](C)[C@H](CN(C)S(=O)(=O)c2ccc(Cl)cc2)OCCCC[C@@H](C)O3)cc1 -29.8%
CCCCc1cc(=O)oc2cc(C)cc(OCC(=O)N3CCC(C(N)=O)CC3)c12 -11.2%
CN(C)C1(CNC(=O)C2CCN(S(=O)(=O)c3ccccc3C(F)(F)F)CC2)CCCCC1 2.84%
Cc1ccc(NC(=O)C2CCCCC2)cc1C 14.2%
CCOC(=O)[C@]12CCC=C1N(Cc1ccccc1)C(=O)[C@H](CC(=O)N1CCCC1)C2 -6.62%
CCOC(=O)c1ccc(S(=O)(=O)N2CCC(N3CCCCC3)CC2)cc1 -21.5%
Cc1cc2c(cc1S(=O)(=O)N1CCN(c3cccc(C(F)(F)F)c3)CC1)OCC(=O)N2 -26.9%
CCCNC(=O)N1C[C@H](O)COC[C@@H]2O[C@@H](CC(=O)N3CCOCC3)CC[C@H]21 -1.19%
COc1ccc(COCCN2CCN(S(=O)(=O)c3ccc(C)cc3)CCC2=O)cc1 5.92%
O=C(C[C@H]1C(=O)N(Cc2ccccc2)C[C@@H]1Cc1ccccc1)Nc1ccc(Br)cc1 -3.63%
O=C1[C@@H](Oc2ccccc2)[C@@H](c2ccncc2)N1c1ccncc1 -3.03%
COc1ccc(S(=O)(=O)Nc2cccc3c2O[C@@H](CN(C)S(C)(=O)=O)[C@@H](C)CN([C@@H](C)CO)C3=O)cc1 16.5%
CCOC(=O)c1ccc(NC(=O)c2nc[nH]c2C(=O)NC2CCN(C(=O)OC(C)(C)C)CC2)cc1 10.6%
CNC(=O)c1[nH]cnc1C(=O)Nc1ccc(Cl)cc1 -6.09%
COc1ccc(N2CCN(c3cc(C(=O)NC4CCCCC4)ncn3)CC2)cc1OC 3.15%
C[C@H](CO)N1C[C@H](C)[C@@H](CN(C)C(=O)Cc2ccccc2)OCCCC[C@H](C)Oc2ccc(NS(=O)(=O)c3ccc(F)cc3)cc2C1=O 6.37%
Nc1ccc(N2C(=O)c3ccccc3C2=O)c(Cl)c1 -7.96%
COc1ccccc1C(=O)N1[C@@H](C(C)C)COc2cc(Br)ccc2S1(=O)=O -34.3%
COc1ccc(-c2cc(N3C(=O)Nc4ccccc4N3O)n[nH]2)cc1OC -9.71%
CC(=O)Nc1cc(-c2ccc(C(=O)NC3CC3)cc2)cn2c(-c3cccc(C(F)(F)F)c3)cnc12 -8.05%
COC(=O)N1CCCCC1c1cc(C(=O)Nc2ccccc2Cl)no1 (configuration not stated) -13.9%
CCN(CC(=O)Nc1ccc(NC(C)=O)cc1)C(=O)Cc1c(Cl)cccc1Cl 3.67%
CC1(C#N)c2ccccc2C(Br)=CN1C(=O)c1ccccc1 (configuration not stated) -21.5%
COc1ccc(C2=Nc3ccccc3N(C(=O)c3ccncc3)C2C(=O)NC(C)C)cc1 (configuration not stated) 5%
COc1ccc(CN(C)C[C@H]2OCCCC[C@@H](C)Oc3ccc(NC(=O)NC(C)C)cc3C(=O)N([C@H](C)CO)C[C@H]2C)cc1 13.6% [at 21 µM]
O=C(COc1ccccc1)NCC(=O)N/N=C/c1ccc(Br)cc1 -10.9%
CC[C@H](C)C(=O)O[C@H]1C[C@@H](C)C=C2C=C[C@H](C)[C@H](CC[C@@H]3C[C@@H](O)CC(=O)O3)[C@H]21 16.6%
COc1ccc(C)cc1NC(=O)C1CCN(S(=O)(=O)c2cccc3cccnc23)CC1 -19.9%
O=C1OC(N2C(=O)CC[C@H]2C(=O)NCC2CCCO2)c2ccccc21 (some centres not stated) -18.2%
O=C(NCC1CCCCC1)[C@@H]1[C@@H](CO)[C@@H]2Cn3c(ccc(-c4cccnc4)c3=O)[C@H]1N2 20.2% [at 10 µM]
COc1ccc(CN(CCC(c2ccccc2)C2CCOC(C)(C)C2)C(C)=O)cc1 (configuration not stated) 25.5%
COc1ccc(CCC(=O)Nc2cc(S(=O)(=O)N3CCOCC3)ccc2OC(C)C)cc1 -14.1%
C[C@H](CO)N1C[C@H](C)[C@H](CN(C)C(=O)Nc2ccc(F)cc2)OCCCC[C@H](C)Oc2ccc(NC(=O)c3ccccc3)cc2C1=O -8.7%
COc1ccc(NC(=O)N2C[C@@H](O)COC[C@@H]3O[C@H](CC(=O)NC4Cc5ccccc5C4)CC[C@H]32)cc1 6.49%
O=C(Nc1cc(F)cc(F)c1)c1sc(Cl)nc1-c1ccccc1 9.12%
C[C@H](CO)N1C[C@H](C)[C@@H](CN(C)Cc2ccc(Oc3ccccc3)cc2)Oc2ccc(NC(=O)Cn3cnnn3)cc2CC1=O 11.8%
COc1cc(NC(=O)c2nccn2C)cc(C(=O)Nc2cccc(C(F)(F)F)c2)c1 2.37%
Cc1c(C(=O)NCc2cccnc2)oc2ccc(S(=O)(=O)N3CC(C)CC(C)C3)cc12 (configuration not stated) 5.46%
C[C@H](CO)N1C[C@H](C)[C@@H](CN(C)C(=O)Nc2ccc(C(F)(F)F)cc2)OCCCC[C@H](C)Oc2ccc(NS(=O)(=O)c3ccc(F)cc3)cc2C1=O -0.779%
COc1ccc(NS(=O)(=O)c2cccs2)cn1 5.62%
Cc1ccc2oc3c(c(=O)c2c1)C(c1cccc(Cl)c1)N(CCCN1CCOCC1)C3=O (configuration not stated) -17.4%
COc1ccccc1Nc1ncnc2c1c(C)c(C)n2CCCN(C)C 25.7%
O=C(O)c1ccc(CNC(=O)C2CCCN2C(=O)OCc2ccccc2)cc1 (configuration not stated) 1.02%
CCOc1ccc2[nH]c3ncccc3c(=O)c2c1 -4.21%
CC(=O)Nc1ccc2c(c1)C(=O)N(C)[C@H]1CC[C@H](CC(=O)Nc3cccc(C(C)C)c3)O[C@@H]1CO2 19.4%
CCCn1c(-c2ccc[nH]c2=O)nc2cc(C)c(C)cc21 3.25%
O=C(NCC1CC1)C1(S(=O)(=O)c2ccccc2)CC=CC1 6.73%
COc1ccc(C(C)NC(=O)c2ccccc2Cl)cc1OC (configuration not stated) -4.47%
COc1c(Cl)cc(Br)c(OC)c1C(=O)NC(=O)Nc1nc(C)cc(C)n1 2.64%
C[C@H]1CN([C@@H](C)CO)C(=O)c2cccc(NC(=O)C3CCCCC3)c2O[C@@H]1CN(C)Cc1ccc(C(=O)Nc2ccccc2N)cc1 -4.75%
COc1ccc(OC)c(-c2cc(C(=O)NC3CCCC3)c3ccccc3n2)c1 -28.9%
Cc1cccnc1 -1.59%
CCCCC[C@H]1CN(CCc2ccccc2)C(=O)[C@@H]1CC(=O)NCc1ccc(OC)cc1 -4.13%
O[C@H]1CN(CC2CCCCC2)[C@@H](c2ccc(Cl)cc2)C[C@@H]1n1cc(C2CC2)nn1 34.8%
O=C(CC1NCCN(Cc2ccccc2)C1=O)Nc1ccccc1 (configuration not stated) -13%
COC(=O)c1c(NC(=O)CC2Sc3ccc(C(F)(F)F)cc3NC2=O)sc(C)c1C (configuration not stated) -25.4%

Fetched by compound from the entries so far, six records:
CPE protection (higher = active), inactive:
CCOC(=O)[C@]12CCC=C1N(Cc1ccccc1)C(=O)[C@H](CC(=O)N1CCCC1)C2 -6.62%
Cc1ccc2oc3c(c(=O)c2c1)C(c1cccc(Cl)c1)N(CCCN1CCOCC1)C3=O (configuration not stated) -17.4%
COc1ccc(C)cc1NC(=O)C1CCN(S(=O)(=O)c2cccc3cccnc23)CC1 -19.9%
CNC(=O)c1[nH]cnc1C(=O)Nc1ccc(Cl)cc1 -6.09%
O=C1OC(N2C(=O)CC[C@H]2C(=O)NCC2CCCO2)c2ccccc21 (some centres not stated) -18.2%
COc1cc(NC(=O)c2nccn2C)cc(C(=O)Nc2cccc(C(F)(F)F)c2)c1 2.37%
